Assay results published in patent publication EP2028187A1 (BOARD OF REGENTS, THE UNIVERSITY OF TEXAS SYSTEM, dated 2009).
Results are given in words; binding and its absence hold for the method and conditions named. Some binding calls cover weakened binding; strength is not graded here.

Sequences of proteins named here, by UniProt entry; tags and fusion partners are left off.
UniProt Q07075: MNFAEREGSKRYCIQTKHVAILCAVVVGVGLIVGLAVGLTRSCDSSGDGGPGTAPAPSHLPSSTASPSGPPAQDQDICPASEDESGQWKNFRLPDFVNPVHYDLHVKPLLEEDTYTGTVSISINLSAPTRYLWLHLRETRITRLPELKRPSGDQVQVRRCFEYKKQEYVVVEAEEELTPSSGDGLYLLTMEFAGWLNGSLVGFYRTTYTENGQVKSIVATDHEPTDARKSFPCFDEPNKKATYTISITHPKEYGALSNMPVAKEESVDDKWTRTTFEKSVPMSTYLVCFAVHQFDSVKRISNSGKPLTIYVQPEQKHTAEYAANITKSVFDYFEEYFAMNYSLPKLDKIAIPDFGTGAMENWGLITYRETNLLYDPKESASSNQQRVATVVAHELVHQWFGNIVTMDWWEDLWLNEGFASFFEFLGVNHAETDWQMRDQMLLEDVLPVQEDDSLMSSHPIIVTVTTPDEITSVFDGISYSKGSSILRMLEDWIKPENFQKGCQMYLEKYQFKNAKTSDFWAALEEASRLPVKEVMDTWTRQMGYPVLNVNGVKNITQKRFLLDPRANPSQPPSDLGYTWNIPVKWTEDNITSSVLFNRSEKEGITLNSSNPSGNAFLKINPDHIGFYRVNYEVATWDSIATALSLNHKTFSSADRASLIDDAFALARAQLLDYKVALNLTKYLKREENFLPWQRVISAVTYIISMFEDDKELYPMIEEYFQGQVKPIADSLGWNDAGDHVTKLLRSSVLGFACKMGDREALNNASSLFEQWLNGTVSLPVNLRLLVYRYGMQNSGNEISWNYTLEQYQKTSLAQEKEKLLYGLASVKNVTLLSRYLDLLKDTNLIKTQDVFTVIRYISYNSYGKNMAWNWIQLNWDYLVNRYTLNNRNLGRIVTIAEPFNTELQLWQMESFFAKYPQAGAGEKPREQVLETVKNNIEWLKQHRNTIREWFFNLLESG

Experiments:
[1] = molecular target: Aminopeptidase A (APA, EC 3.4.11.7) on cells (UniProt Q07075); experiment: competition of soluble peptide with phage binding to SK-RC-49/APA cells (not shown)
[2] = molecular target: Immunocaptured APA (from SK-RC-49/APA cell lysate, on mAb RC38-coated microwells) (UniProt Q07075); experiment: phage binding to APA immunocaptured on RC38-coated microwells (not shown)

Binder	binding [1]	binding [2]
CPRECESIC (cyclic peptide, spontaneously cyclized in non-reducing conditions) [… (SEQ ID NO:123) soluble peptide]	binds	
CLGQCASICVNDC [phage displaying … (SEQ ID NO:126)]		binds
CYNLCIRECESICGADGACWTWCADGCSRSC [phage displaying … (SEQ ID NO:125)]		binds
CPKVCPRECESNC [phage displaying … (SEQ ID NO:127)]		binds
